Source: PMC10323247
Results are given in words; binding and its absence hold for the method and conditions named. Binding seen in cells or lysates may run through a third protein. Some binding calls cover weakened binding; strength is not graded here. Tags and fused reporters may be left off the sequences shown.

T1: HAUS2 with C-terminal mGFP-TEV-TwinStrep tag (human) (UniProt Q9NVX0)
T1 sequence: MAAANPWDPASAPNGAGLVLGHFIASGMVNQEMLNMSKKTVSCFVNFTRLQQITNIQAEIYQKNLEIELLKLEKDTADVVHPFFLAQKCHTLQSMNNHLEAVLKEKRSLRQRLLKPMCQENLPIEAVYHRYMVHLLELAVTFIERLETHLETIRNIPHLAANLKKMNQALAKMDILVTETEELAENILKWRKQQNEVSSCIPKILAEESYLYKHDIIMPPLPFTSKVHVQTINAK

B1: HAUS1 with C-terminal 3C-His6 tag (protein, UniProt Q96CS2-1 1-278)
chain: MEPQEERETQVAAWLKKIFGDHPIPQYEVNPRTTEILHHLSERNRVRDRDVYLVIEDLKQKASEYESEAKYLQDLLMESVNFSPANLSSTGSRYLNALVDSAVALETKDTSLASFIPAVNDLTSDLFRTKSKSEEIKIELEKLEKNLTATLVLEKCLQEDVKKAELHLSTERAKVDNRRQNMDFLKAKSEEFRFGIKAAEEQLSARGMDASLSHQSLVALSEKLARLKQQTIPLKKKLESYLDLMPNPSLAQVKIEEAKRELDSIEAELTRRVDMMEL
B2: HAUS3 (protein, UniProt Q68CZ6-1 1-603)
chain: MSCGNEFVETLKKIGYPKADNLNGEDFDWLFEGVEDESFLKWFCGNVNEQNVLSERELEAFSILQKSGKPILEGAALDEALKTCKTSDLKTPRLDDKELEKLEDEVQTLLKLKNLKIQRRNKCQLMASVTSHKSLRLNAKEEEATKKLKQSQGILNAMITKISNELQALTDEVTQLMMFFRHSNLGQGTNPLVFLSQFSLEKYLSQEEQSTAALTLYTKKQFFQGIHEVVESSNEDNFQLLDIQTPSICDNQEILEERRLEMARLQLAYICAQHQLIHLKASNSSMKSSIKWAEESLHSLTSKAVDKENLDAKISSLTSEIMKLEKEVTQIKDRSLPAVVRENAQLLNMPVVKGDFDLQIAKQDYYTARQELVLNQLIKQKASFELLQLSYEIELRKHRDIYRQLENLVQELSQSNMMLYKQLEMLTDPSVSQQINPRNTIDTKDYSTHRLYQVLEGENKKKELFLTHGNLEEVAEKLKQNISLVQDQLAVSAQEHSFFLSKRNKDVDMLCDTLYQGGNQLLLSDQELTEQFHKVESQLNKLNHLLTDILADVKTKRKTLANNKLHQMEREFYVYFLKDEDYLKDIVENLETQSKIKAVSLED
B3: HAUS4 (protein, UniProt Q9H6D7-1 1-363)
chain: MASGDFCSPGEGMEILQQVCSKQLPPCNLSKEDLLQNPYFSKLLLNLSQHVDESGLSLTLAKEQAQAWKEVRLHKTTWLRSEILHRVIQELLVDYYVKIQDTNVTSEDKKFHETLEQRLLVTELMRLLGPSQEREIPPLLGLEKADLLELMPLSEDFVWMRARLQQEVEEQLKKKCFTLLCYYDPNSDADSETVKAAKVWKLAEVLVGEQQQCQDAKSQQKEQMLLLEKKSAAYSQVLLRCLTLLQRLLQEHRLKTQSELDRINAQYLEVKCGAMILKLRMEELKILSDTYTVEKVEVHRLIRDRLEGAIHLQEQDMENSRQVLNSYEVLGEEFDRLVKEYTVLKQATENKRWALQEFSKVYR
B4: HAUS5 (protein, UniProt O94927-1 1-633)
chain: MELAQEARELGCWAVEEMGVPVAARAPESTLRRLCLGQGADIWAYILQHVHSQRTVKKIRGNLLWYGHQDSPQVRRKLELEAAVTRLRAEIQELDQSLELMERDTEAQDTAMEQARQHTQDTQRRALLLRAQAGAMRRQQHTLRDPMQRLQNQLRRLQDMERKAKVDVTFGSLTSAALGLEPVVLRDVRTACTLRAQFLQNLLLPQAKRGSLPTPHDDHFGTSYQQWLSSVETLLTNHPPGHVLAALEHLAAEREAEIRSLCSGDGLGDTEISRPQAPDQSDSSQTLPSMVHLIQEGWRTVGVLVSQRSTLLKERQVLTQRLQGLVEEVERRVLGSSERQVLILGLRRCCLWTELKALHDQSQELQDAAGHRQLLLRELQAKQQRILHWRQLVEETQEQVRLLIKGNSASKTRLCRSPGEVLALVQRKVVPTFEAVAPQSRELLRCLEEEVRHLPHILLGTLLRHRPGELKPLPTVLPSIHQLHPASPRGSSFIALSHKLGLPPGKASELLLPAAASLRQDLLLLQDQRSLWCWDLLHMKTSLPPGLPTQELLQIQASQEKQQKENLGQALKRLEKLLKQALERIPELQGIVGDWWEQPGQAALSEELCQGLSLPQWRLRWVQAQGALQKLCS
B5: HAUS6 (protein, UniProt Q7Z4H7-1 1-955)
chain: MSSASVTAFEKEHLWMYLQALGFEPGPATIACGKIVSHTHLGVNMFDKLNRDAFHIISYFLFQVLDQSLTKEVFKFCWPPFDQKSDTEFRKHCCEWIKRISGECGSSFPQVVGSLFLSPGGPKFIHLMYHFARFVAMKYIKSNSKNSSHHFVETFNIKPQDLHKCIARCHFARSRFLQILQRQDCVTQKYQENAQLSVKQVRNLRSECIGLENQIKKMEPYDDHSNMEEKIQKVRSLWASVNETLMFLEKEREVVSSVLSLVNQYALDGTNVAINIPRLLLDKIEKQMFQLHIGNVYEAGKLNLLTVIQLLNEVLKVMKYERCQADQARLTVDLHYLEKETKFQKERLSDLKHMRYRIKDDLTTIRHSVVEKQGEWHKKWKEFLGLSPFSLIKGWTPSVDLLPPMSPLSFDPASEEVYAKSILCQYPASLPDAHKQHNQENGCRGDSDTLGALHDLANSPASFLSQSVSSSDRNSVTVLEKDTKMGTPKEKNEAISKKIPEFEVENSPLSDVAKNTESSAFGGSLPAKKSDPFQKEQDHLVEEVARAVLSDSPQLSEGKEIKLEELIDSLGSNPFLTRNQIPRTPENLITEIRSSWRKAIEMEENRTKEPIQMDAEHREVLPESLPVLHNQREFSMADFLLETTVSDFGQSHLTEEKVISDCECVPQKHVLTSHIDEPPTQNQSDLLNKKVICKQDLECLAFTKLSETSRMETFSPAVGNRIDVMGGSEEEFMKILDHLEVSCNKPSTNKTMLWNSFQISSGISSKSFKDNDFGILHETLPEEVGHLSFNSSSSSEANFKLEPNSPMHGGTLLEDVVGGRQTTPESDFNLQALRSRYEALKKSLSKKREESYLSNSQTPERHKPELSPTPQNVQTDDTLNFLDTCDLHTEHIKPSLRTSIGERKRSLSPLIKFSPVEQRLRTTIACSLGELPNLKEEDILNKSLDAKEPPSDLTR

biological target: T1, HAUS2 with C-terminal mGFP-TEV-TwinStrep tag (human); experiment: pull-down + SEC; eight subunits co-expressed in High Five cells; captured by the TwinStrep tag of HAUS2 on StrepTrap HP (lysis buffer with 400 mM NaCl), eluted with desthiobiotin, then Superose 6 Increase SEC (250 mM NaCl); subunits in fractions E2-E3 seen by SDS-PAGE and western blotting

binding, binds:
B1
B2
B3
B4
B5
